Experimental data taken from patent publication US5100776A, “Immunological detection process for herbicides” (Dr. Pfeiffer Bioanalytik KG, priority 1987, dated 1992).
For at least one compound, name, drawing or mass did not settle the structure.

Tested on: antibody (high specificity for atrazine)
Assay: Cross-reactivity of triazines and other herbicides in competitive enzyme immunoassay (inhibition of enzyme tracer binding)
Set-up: species or system rabbits
Settings: Cross-activity at a concentration of 2 ppb; inhibition of the enzymatic detection system
Excerpt: For the preparation of an antibody A, which is preferably directed against the side [drawing 3] of the atrazine molecule, at first the methylthioether group of the triazine ametryn is sulfoxidized with peroxy acid and then the modified ametryn is coupled directly with the beef serum albumin. In the analogous way, for the development of an antibody B, which is preferentially directed against the side: [drawing 4] of the atrazine molecule, one of the ethylamino groups of the triazine simazine is bonded by the carbodiimide process to the protein. Lastly an antibody C which preferably responds to the side: [drawing 5] of the atrazine is produced by coupling the herbicide propazine via one of the isopropylamino groups with the carrier matrix. […]
The solutions are mixed by brief horizontal shaking of the microtiter plate. […] For the quantitative detection of the bonded enzyme tracer, respectively 125 μl phosphatase substrate solution (1 mg p-nitrophenylphosphate per ml carbonate buffer) are poured into the individual cavities. […] The absorption of the solution in the individual cavities is measured by a vertical ray photometer on the wavelength 4054 nm. […]

CCNc1nc(O)nc(NC(C)C)n1 [hydroxy-3 isopropyl-5-ethyltriazine] was tested, and the “inhibition (%)” value was 5.3%.
